{"source": "PubChem BioAssay AID1159584 | Peter MacCallum Cancer Centre – 2016", "purpose": "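Genes whose loss is lethal only together with E-cadherin loss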 (primary screen)", "cells": "human MCF10A breast epithelial cells, parental and CDH1-null", "knock-down reagent": "siRNA against human genes", "detection": "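Cell viability by CellTiter-Glo ATP luminescence, each line scaled to the mean of mock wells across plates, then CDH1-null over parental ratio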", "direction": "CDH1-null / parental viability ratio: higher = CDH1-null cells survive relatively better than parental", "note": "This is an unselected part of about 18,000 reagents tested. Not all columns of the deposit are shown. No sequences are given here. Not stated in the record: the amount of reagent, the time to read-out."}
{"gene":"LHFPL3","CDH1-null / parental viability ratio":1.2}
{"gene":"CCL25","CDH1-null / parental viability ratio":1.15}
{"gene":"PUS1","CDH1-null / parental viability ratio":1.34}
{"gene":"DLGAP2","CDH1-null / parental viability ratio":0.95}
{"gene":"RGS9","CDH1-null / parental viability ratio":0.91}
{"gene":"B3GALT5","CDH1-null / parental viability ratio":0.93}
{"gene":"EXD2","CDH1-null / parental viability ratio":1.16}
{"gene":"RAD51C","CDH1-null / parental viability ratio":1.06}
{"gene":"ARRB2","CDH1-null / parental viability ratio":1.04}
{"gene":"ZNF34","CDH1-null / parental viability ratio":1.16}
{"gene":"PDE12","CDH1-null / parental viability ratio":1.09}
{"gene":"INF2","CDH1-null / parental viability ratio":0.88}
{"gene":"DUS2","CDH1-null / parental viability ratio":1.24}
{"gene":"TRPM8","CDH1-null / parental viability ratio":1.11}
{"gene":"FLVCR2","CDH1-null / parental viability ratio":1.24}
{"gene":"ZNF792","CDH1-null / parental viability ratio":0.8}
{"gene":"HEXB","CDH1-null / parental viability ratio":0.95}
{"gene":"HPS3","CDH1-null / parental viability ratio":1.07}
{"gene":"RAB6A","CDH1-null / parental viability ratio":1.1}
{"gene":"SHD","CDH1-null / parental viability ratio":1.39}
{"gene":"ZBTB38","CDH1-null / parental viability ratio":0.66}
{"gene":"ADAMTS17","CDH1-null / parental viability ratio":1.18}
{"gene":"DCAF4L2","CDH1-null / parental viability ratio":0.87}
{"gene":"ESS2","CDH1-null / parental viability ratio":1}
{"gene":"LGALSL","CDH1-null / parental viability ratio":0.8}
{"gene":"PPIE","CDH1-null / parental viability ratio":0.76}
{"gene":"HHIP","CDH1-null / parental viability ratio":0.96}
{"gene":"ERV3-1","CDH1-null / parental viability ratio":1.4}
{"gene":"RPIA","CDH1-null / parental viability ratio":0.76}
{"gene":"OLFM4","CDH1-null / parental viability ratio":1.02}
{"gene":"ARAP1","CDH1-null / parental viability ratio":1.3}
{"gene":"TROAP","CDH1-null / parental viability ratio":1}
{"gene":"ARHGAP30","CDH1-null / parental viability ratio":0.84}
{"gene":"CLDN5","CDH1-null / parental viability ratio":0.81}
{"gene":"CAMK1D","CDH1-null / parental viability ratio":1.05}
{"gene":"DGCR2","CDH1-null / parental viability ratio":0.76}
{"gene":"MAPK3","CDH1-null / parental viability ratio":0.96}
{"gene":"POFUT1","CDH1-null / parental viability ratio":0.92}
{"gene":"AGO1","CDH1-null / parental viability ratio":0.88}
{"gene":"ELP5","CDH1-null / parental viability ratio":1.21}
{"gene":"UMODL1","CDH1-null / parental viability ratio":0.91}
{"gene":"MRPS31","CDH1-null / parental viability ratio":1.01}
{"gene":"MIP","CDH1-null / parental viability ratio":1.02}
{"gene":"ST8SIA5","CDH1-null / parental viability ratio":1.04}
{"gene":"SCG2","CDH1-null / parental viability ratio":1.04}

Part of the list above, reformatted:
AGO1 | CDH1-null / parental viability ratio = 0.88
ELP5 | CDH1-null / parental viability ratio = 1.21
UMODL1 | CDH1-null / parental viability ratio = 0.91
